Source: doi:10.1101/438945

Target: T1, PALB2-GFP (mouse, Palb2^GFP/GFP knock-in) (mouse (endogenous in mES cells)), Q3U0P1
T1 chain: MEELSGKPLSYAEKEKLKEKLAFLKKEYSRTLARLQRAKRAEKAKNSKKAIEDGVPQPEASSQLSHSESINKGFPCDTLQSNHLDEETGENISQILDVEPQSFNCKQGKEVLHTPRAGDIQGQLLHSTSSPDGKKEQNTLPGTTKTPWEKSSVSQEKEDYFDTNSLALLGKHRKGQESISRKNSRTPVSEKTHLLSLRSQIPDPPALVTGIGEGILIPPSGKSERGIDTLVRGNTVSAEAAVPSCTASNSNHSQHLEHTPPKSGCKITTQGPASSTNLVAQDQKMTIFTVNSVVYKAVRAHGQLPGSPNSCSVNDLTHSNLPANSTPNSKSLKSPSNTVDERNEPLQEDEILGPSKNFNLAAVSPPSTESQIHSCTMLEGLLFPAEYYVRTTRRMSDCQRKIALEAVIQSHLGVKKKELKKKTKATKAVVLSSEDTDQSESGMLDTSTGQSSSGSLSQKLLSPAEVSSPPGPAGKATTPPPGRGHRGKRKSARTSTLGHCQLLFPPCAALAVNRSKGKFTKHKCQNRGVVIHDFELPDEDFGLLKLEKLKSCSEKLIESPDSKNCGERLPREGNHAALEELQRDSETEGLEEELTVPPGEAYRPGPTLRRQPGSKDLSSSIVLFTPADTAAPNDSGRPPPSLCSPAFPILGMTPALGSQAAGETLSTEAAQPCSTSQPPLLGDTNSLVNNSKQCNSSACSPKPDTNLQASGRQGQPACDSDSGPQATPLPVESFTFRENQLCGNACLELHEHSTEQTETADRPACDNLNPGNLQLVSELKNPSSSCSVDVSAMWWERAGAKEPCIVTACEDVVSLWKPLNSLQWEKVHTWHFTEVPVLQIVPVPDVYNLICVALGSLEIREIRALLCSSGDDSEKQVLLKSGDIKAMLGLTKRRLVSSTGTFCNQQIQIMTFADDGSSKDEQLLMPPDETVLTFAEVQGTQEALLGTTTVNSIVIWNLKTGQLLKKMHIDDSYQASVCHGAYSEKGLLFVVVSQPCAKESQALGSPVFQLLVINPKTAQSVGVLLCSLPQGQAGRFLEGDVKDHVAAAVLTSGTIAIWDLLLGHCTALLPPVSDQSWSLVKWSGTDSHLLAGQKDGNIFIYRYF
Experiment: affinity purification with mass spectrometry
Details: remark: other sources report otherwise

B1: HSF2BP (mouse, endogenous in mES cells), Q9D4G2 1-338 (protein)
chain: MAATVGDGSGTEEACRNMESKEEFVKVRKKDLERLTTEVMQIRDFLPRILNGELLESFQKLKMVEKNLERKEQELEQLIMDREHFKARLETAQADSGREKKEKLALRQQLNEAKQQLLQQAEYCTQMGAVTCTLLWGVSSSEEVVKTILGGDKALKFFNITGQTMESFVKSLDGDVKEVDSDENQFVFALAGIVTNVAAIACGREFLVNSSRVLLDTMLQLLGDLKPGQCTKLKVLMLMSLYNVSINSKGLKYITESPGFIPLLWWLLSDPDAEVCLHTLRLIQSVVLEPDVFSKVASELQSSLPLQRILAMSKSRNSHLQSAAQELLEDLRALDCNV
For B1, which binding is on record?
Its binding is “binds”.

These are yes or no findings as the source states them, for the method shown. Binding seen in cells or lysates may run through a third protein. Here binding means that the protein was enriched with, or labelled near, the bait; the list need not be complete. Sequences can lack the tags named with a protein.
